# PubChem BioAssay AID1259326, Drosophila RNAi Screening Center – 2017
# Aim: 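Knock-downs that shift cellular ATP after a high zinc chloride dose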
# Cells: Drosophila S2R+ cells
# Knock-down reagent: long dsRNA against Drosophila genes
# Duration: about 5 days (4 days of RNAi, then 1 day of zinc)
# Challenge: zinc chloride added to 15 mM final for one day
# Measurement: 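Luminescent ATP signal marks surviving cells, read after RNAi for 4 days then 15 mM zinc chloride for 1 day; z-scores are replicate means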
# Reading the numbers: averaged z-score: higher = more ATP than other wells, i.e. more surviving cells, after zinc; ATP luminescence: higher = more ATP, i.e. more surviving cells
# Active means: 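Active if the averaged z-score exceeds 1.5 or falls under -1.5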
# This is a random part of 573 reagents tested. Over the whole deposit, 39 (6.8%) were called active. 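All actives have raised ATP, meaning more surviving cells; in these data active calls sit at averaged z-scores near 1.5 or above.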 Raw values are not corrected between plates. Entries without a mark were called inactive. The numbers tell different reagents against one gene apart. Reagent sequences are not shown. Not given: the amount of reagent.
target gene,reagent,averaged z-score,"ATP luminescence, replicate 1","ATP luminescence, replicate 2"
Atg101 (Autophagy-related 101),1,-0.431,72125,1.08e5
Atg101 (Autophagy-related 101),2,0.0976,72345,86188
ACC (Acetyl-CoA carboxylase),1,0.39,1.02e5,82911
ACC (Acetyl-CoA carboxylase),2,0.0214,68692,79360
ACC (Acetyl-CoA carboxylase),3,0.216,88074,79764
Galphai (G protein alpha subunit i),1,0.321,1.09e5,74930
Galphai (G protein alpha subunit i),2,0.567,94714,90631
Galphai (G protein alpha subunit i),3,-0.264,63375,72826
Vang (Van Gogh),1,-0.199,95537,74815
Vang (Van Gogh),2,-0.297,79660,72671
Vang (Van Gogh),3,-0.281,69272,65159
Afg3l2 (AFG3 like matrix AAA peptidase subunit 2),1,0.277,89584,73169
Afg3l2 (AFG3 like matrix AAA peptidase subunit 2),2,0.429,84266,86959
Afg3l2 (AFG3 like matrix AAA peptidase subunit 2),3,0.923,84685,89970
Ggamma1 (G protein gamma subunit 1),1,-0.513,71777,94044
Ggamma1 (G protein gamma subunit 1),2,-0.576,53704,74215
EcR (Ecdysone receptor),1,-0.406,78589,67749
EcR (Ecdysone receptor),2,-0.994,68520,58092
sgg (shaggy),1,0.19,1.04e5,86651
sgg (shaggy),2,0.796,82225,87131
sgg (shaggy),3,0.265,87960,68384
"Gos28 (Golgi SNARE, 28 kDa)",1,-0.218,81590,1.02e5
"Gos28 (Golgi SNARE, 28 kDa)",2,-0.0349,62673,85741
Buffy,1,0.249,87648,97201
Buffy,2,-0.255,65262,70476
Ciao1,1,0.136,1.04e5,75621
Ciao1,2,-0.455,80853,62509
Ciao1,3,-0.431,63599,70219

Only “ATP luminescence, replicate 1”, for 5 of the entries above:
Buffy #1 = 87648
Buffy #2 = 65262
Ciao1 #1 = 1.04e5
Ciao1 #2 = 80853
Ciao1 #3 = 63599
